Data as given in PubChem BioAssay AID1259308 (NCATS, 2017)
The whole screen tested about 59,000 reagents; shown is a part drawn at random. About 1,510 of them (2.6%) were called active. 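Calls use total luciferase alone and ignore viability, so some active siRNAs may act by altering cell number.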 Reagents against one gene are numbered here.

Assay: 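Genes whose loss raises luciferase production in HEK293 cells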 (primary screen)
Cells: human HEK293 embryonic kidney cells stably expressing firefly luciferase (HEK-CMV-Luc2-Hygro)
Knock-down reagent: single siRNA against human genes, 0.8 pmol siRNA per well
Duration: 72 h
Detection: 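Luciferase light (ONE-Glo) measured on one replicate plate set and viability (CellTiter-Glo) on the other, scaled to a negative control siRNA, with robust z-scores and luciferase per cell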
Reading the numbers: total luciferase, z-score and total luciferase, % of control: higher = more reporter protein produced; luciferase per cell, z-score: higher = more reporter output per viable cell; viable cells, % of control: higher = more viable cells
Call rule: 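Active when the median/MAD z-score for overall luciferase is greater than 3; a gene was taken forward for validation with new siRNAs if at least two of its three siRNAs passed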
Calls: active = raised luciferase; inactive = no rise

target | reagent | total luciferase, z-score | total luciferase, % of control | luciferase per cell, z-score | viable cells, % of control | activity call
ENTPD8 | 1 | -0.732 | 67.3 | 0.646 | 63.5 | inactive
ENTPD8 | 2 | -0.327 | 75.4 | -0.332 | 91.9 | inactive
ENTPD8 | 3 | 2.2 | 126 | 2.19 | 78.8 | inactive
ADAMTS1 | 1 | -0.815 | 65.7 | 0.0547 | 72.3 | inactive
ADAMTS1 | 2 | 0.124 | 84.4 | 0.00677 | 94.1 | inactive
ADAMTS1 | 3 | -0.697 | 68 | -0.678 | 90.9 | inactive
ELOA | 1 | -1.08 | 60.3 | -1.18 | 92 | inactive
ELOA | 2 | -0.563 | 70.7 | -0.538 | 91 | inactive
ELOA | 3 | 0.0398 | 82.7 | 0.389 | 83.4 | inactive
SLURP1 | 1 | 0.258 | 87 | 0.618 | 82.6 | inactive
SLURP1 | 2 | -0.58 | 70.4 | 1.24 | 56.8 | inactive
SLURP1 | 3 | 1.67 | 115 | 1.78 | 80.6 | inactive
EFNA1 | 1 | -1.37 | 54.6 | -1.28 | 85.4 | inactive
EFNA1 | 2 | -0.513 | 71.7 | -0.584 | 93.4 | inactive
EFNA1 | 3 | 0.448 | 90.8 | -0.00272 | 102 | inactive
CLDN17 | 1 | -1.77 | 46.8 | -0.326 | 57 | inactive
CLDN17 | 2 | 2.19 | 125 | 2.09 | 80.8 | inactive
CLDN17 | 3 | 0.363 | 89.1 | -0.173 | 104 | inactive
PPP1R14A | 1 | -1.23 | 57.4 | -1.86 | 105 | inactive
PPP1R14A | 2 | 0.419 | 90.2 | 0.226 | 95 | inactive
PPP1R14A | 3 | -0.129 | 79.3 | -0.502 | 101 | inactive
PDGFRB | 1 | 0.0872 | 83.6 | 0.666 | 78.4 | inactive
PDGFRB | 2 | -0.252 | 76.9 | -0.561 | 99.6 | inactive
PDGFRB | 3 | 1.19 | 106 | 1.83 | 72.8 | inactive
C8orf76 | 1 | 0.227 | 86.4 | -0.222 | 102 | inactive
C8orf76 | 2 | 0.204 | 85.9 | 0.595 | 82.1 | inactive
C8orf76 | 3 | 2.44 | 130 | 1.76 | 91.7 | inactive
GPS1 | 1 | -0.128 | 79.3 | 0.553 | 76.6 | inactive
GPS1 | 2 | -0.839 | 65.2 | -0.673 | 87 | inactive
GPS1 | 3 | -0.128 | 79.3 | 1.27 | 63.4 | inactive

Reprinted from above (6 entries):
target | reagent | total luciferase, z-score | total luciferase, % of control | luciferase per cell, z-score | viable cells, % of control | activity call
ENTPD8 | 2 | -0.327 | 75.4 | -0.332 | 91.9 | inactive
ENTPD8 | 3 | 2.2 | 126 | 2.19 | 78.8 | inactive
ADAMTS1 | 1 | -0.815 | 65.7 | 0.0547 | 72.3 | inactive
ADAMTS1 | 2 | 0.124 | 84.4 | 0.00677 | 94.1 | inactive
ADAMTS1 | 3 | -0.697 | 68 | -0.678 | 90.9 | inactive
ELOA | 1 | -1.08 | 60.3 | -1.18 | 92 | inactive

The list goes on.
target | reagent | total luciferase, z-score | total luciferase, % of control | luciferase per cell, z-score | viable cells, % of control | activity call
MARK4 | 1 | 0.721 | 96.2 | 1.29 | 76.5 | inactive
MARK4 | 2 | 0.338 | 88.6 | 0.454 | 87.9 | inactive
MARK4 | 3 | 0.944 | 101 | 0.799 | 91.1 | inactive
PCID2 | 1 | -0.436 | 73.2 | -0.162 | 85.4 | inactive
PCID2 | 2 | -0.507 | 71.8 | -0.734 | 97.3 | inactive
PCID2 | 3 | -0.234 | 77.2 | 0.643 | 72.9 | inactive
FKBP6 | 1 | -0.79 | 66.2 | -1.25 | 103 | inactive
FKBP6 | 2 | 0.71 | 96 | 0.591 | 91.8 | inactive
FKBP6 | 3 | -0.586 | 70.2 | -0.322 | 85.4 | inactive
RBM11 | 1 | -1.34 | 55.3 | -1.63 | 94.9 | inactive
RBM11 | 2 | 0.841 | 98.6 | 0.875 | 87.5 | inactive
RBM11 | 3 | -1.4 | 54.1 | -1.13 | 81.3 | inactive
GARIN3 | 1 | -1.8 | 46 | -1.99 | 86.9 | inactive
GARIN3 | 2 | 0.0878 | 83.6 | 1.12 | 69.6 | inactive
GARIN3 | 3 | 0.221 | 86.3 | 0.336 | 88.3 | inactive
EIF2S2 | 1 | -2.03 | 41.5 | -1.96 | 77.7 | inactive
EIF2S2 | 2 | -2.89 | 24.5 | -3.23 | 64 | inactive
EIF2S2 | 3 | -2.7 | 28.1 | -3.28 | 74.5 | inactive
RNF216 | 1 | 1.21 | 106 | 0.827 | 95.3 | inactive
RNF216 | 2 | -0.0392 | 81.1 | -0.363 | 99.7 | inactive
RNF216 | 3 | -0.398 | 74 | -0.736 | 100 | inactive
BCORL1 | 1 | 0.679 | 95.4 | 0.161 | 102 | inactive
BCORL1 | 2 | -1.22 | 57.6 | -0.996 | 83.6 | inactive
BCORL1 | 3 | 0.117 | 84.2 | 0.627 | 79.8 | inactive
GOLGA8J | 1 | 3.56 | 153 | 2.95 | 78.5 | active
GOLGA8J | 2 | 0.332 | 88.5 | 1.24 | 71.3 | inactive
GOLGA8J | 3 | -1.91 | 43.8 | -1.32 | 69.2 | inactive
